From publication PMC10073124
These are yes or no findings as the source states them, for the method shown. In cells and extracts the contact can be indirect. Binding calls can cover weak binding; strength is not graded here.

Biological target: T1, Four and a half LIM domains 2 (FHL2) (mouse (endogenous in primary granulosa cells)) (UniProt O70433)
T1 sequence: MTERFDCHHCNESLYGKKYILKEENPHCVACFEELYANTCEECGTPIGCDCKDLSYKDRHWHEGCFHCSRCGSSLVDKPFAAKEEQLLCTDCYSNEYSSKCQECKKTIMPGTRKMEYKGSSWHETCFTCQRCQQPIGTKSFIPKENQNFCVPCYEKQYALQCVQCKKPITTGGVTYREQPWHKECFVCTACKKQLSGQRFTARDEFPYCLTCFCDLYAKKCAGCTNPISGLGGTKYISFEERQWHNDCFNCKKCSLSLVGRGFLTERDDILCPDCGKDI
Assay: co-IP; granulosa cell lysates incubated overnight with rabbit anti-FHL2 antibody or normal rabbit IgG; protein A/G agarose beads, 30 min at 4 °C; five washes with cell lysis buffer; western blot with anti-NF-κB and anti-AP-1 antibodies

- binding: binds
Substance: NF-κB transcription factor
